This is one part of the list.
compound: FC(F)(F)c1ccc(/C=C/c2nc(COc3ccc(CCCCn4ccnn4)cc3)co2)cc1 [mubritinib]; assay: log2 fold change, soluble protein after heating vs DMSO (PISA); higher = thermal stabilisation; K562 cells, 10 uM, 30 min; active = over 0.2 and 3.5 SD of the protein, either way, in both replicates (recomputed)
Summary of the method: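 K562 cells at 2×10^6 cells/mL were given 10 μM compound for 30 min. Aliquots then went through 3 min of heating across 48°C-58°C, were pooled, and were extracted in PBS with 0.5% NP-40 at 4°C, and the supernatant after 21,000xg for 90 min was quantified by TMTpro 16plex LC-MS/MS with channel sums equalised. Thermal stability relative to control samples, from duplicates, is given as log2 fold change.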

Protein sequences, listed by entry. Tags and fused reporters are not part of them. Lines headed by an entry give the natural chain unless they say otherwise; changes in a name come on top.
UniProt Q9H0R8, whole entry, looked up: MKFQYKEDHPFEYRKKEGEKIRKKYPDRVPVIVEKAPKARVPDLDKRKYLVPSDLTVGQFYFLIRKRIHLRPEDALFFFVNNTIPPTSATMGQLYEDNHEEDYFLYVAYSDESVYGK
UniProt Q8TEQ6: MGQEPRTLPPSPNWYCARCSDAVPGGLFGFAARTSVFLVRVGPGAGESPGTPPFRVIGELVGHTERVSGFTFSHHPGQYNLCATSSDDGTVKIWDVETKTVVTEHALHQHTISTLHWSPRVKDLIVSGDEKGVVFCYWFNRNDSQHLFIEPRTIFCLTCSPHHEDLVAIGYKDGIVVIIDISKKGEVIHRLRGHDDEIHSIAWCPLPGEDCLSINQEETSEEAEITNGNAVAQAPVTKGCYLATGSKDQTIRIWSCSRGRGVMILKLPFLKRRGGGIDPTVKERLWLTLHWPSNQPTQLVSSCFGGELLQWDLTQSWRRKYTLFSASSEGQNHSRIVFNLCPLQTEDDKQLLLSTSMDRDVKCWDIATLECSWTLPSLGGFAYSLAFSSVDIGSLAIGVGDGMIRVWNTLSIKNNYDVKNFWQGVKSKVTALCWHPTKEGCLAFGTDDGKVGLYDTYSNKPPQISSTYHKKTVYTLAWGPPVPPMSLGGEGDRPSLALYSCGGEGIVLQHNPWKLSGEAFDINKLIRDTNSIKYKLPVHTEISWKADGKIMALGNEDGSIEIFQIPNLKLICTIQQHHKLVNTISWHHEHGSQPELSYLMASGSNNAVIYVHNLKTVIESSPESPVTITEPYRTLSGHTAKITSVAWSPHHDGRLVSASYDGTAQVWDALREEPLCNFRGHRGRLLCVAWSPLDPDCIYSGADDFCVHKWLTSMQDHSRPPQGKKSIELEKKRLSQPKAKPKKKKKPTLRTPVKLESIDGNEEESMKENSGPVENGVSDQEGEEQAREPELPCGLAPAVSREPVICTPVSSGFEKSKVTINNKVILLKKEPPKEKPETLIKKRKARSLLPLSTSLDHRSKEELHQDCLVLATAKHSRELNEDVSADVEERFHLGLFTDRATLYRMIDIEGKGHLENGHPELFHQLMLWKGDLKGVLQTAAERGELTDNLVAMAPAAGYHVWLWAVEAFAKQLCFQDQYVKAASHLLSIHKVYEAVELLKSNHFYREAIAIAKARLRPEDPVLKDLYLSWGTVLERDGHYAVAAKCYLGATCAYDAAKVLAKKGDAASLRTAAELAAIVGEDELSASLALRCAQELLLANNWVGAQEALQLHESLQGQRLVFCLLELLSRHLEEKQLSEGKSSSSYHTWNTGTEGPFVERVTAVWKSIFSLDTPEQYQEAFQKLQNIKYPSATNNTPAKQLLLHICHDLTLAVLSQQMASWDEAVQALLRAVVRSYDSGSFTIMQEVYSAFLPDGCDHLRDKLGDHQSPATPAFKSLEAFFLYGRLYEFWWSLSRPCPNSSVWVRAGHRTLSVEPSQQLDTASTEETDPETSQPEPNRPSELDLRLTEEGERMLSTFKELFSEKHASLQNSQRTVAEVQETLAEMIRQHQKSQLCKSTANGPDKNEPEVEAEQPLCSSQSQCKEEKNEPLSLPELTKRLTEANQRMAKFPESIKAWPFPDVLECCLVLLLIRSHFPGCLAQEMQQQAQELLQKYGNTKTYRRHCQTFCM
UniProt Q96NB1: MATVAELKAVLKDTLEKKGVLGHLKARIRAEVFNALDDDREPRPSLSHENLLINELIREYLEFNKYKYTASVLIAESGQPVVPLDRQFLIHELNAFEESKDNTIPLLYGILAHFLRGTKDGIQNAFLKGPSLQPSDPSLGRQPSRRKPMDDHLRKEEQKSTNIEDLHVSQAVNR
UniProt P31150: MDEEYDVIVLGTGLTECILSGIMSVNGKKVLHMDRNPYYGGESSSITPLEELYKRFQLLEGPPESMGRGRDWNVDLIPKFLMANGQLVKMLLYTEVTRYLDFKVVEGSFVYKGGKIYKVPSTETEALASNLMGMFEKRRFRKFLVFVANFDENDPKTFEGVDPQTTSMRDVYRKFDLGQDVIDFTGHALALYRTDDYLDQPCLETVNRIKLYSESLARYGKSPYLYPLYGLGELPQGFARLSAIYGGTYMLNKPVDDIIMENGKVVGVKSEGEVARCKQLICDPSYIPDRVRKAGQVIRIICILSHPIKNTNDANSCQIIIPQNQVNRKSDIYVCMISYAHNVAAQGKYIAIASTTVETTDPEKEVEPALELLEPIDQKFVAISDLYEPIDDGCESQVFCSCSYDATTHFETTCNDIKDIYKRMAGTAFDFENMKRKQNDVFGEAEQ
UniProt Q10471: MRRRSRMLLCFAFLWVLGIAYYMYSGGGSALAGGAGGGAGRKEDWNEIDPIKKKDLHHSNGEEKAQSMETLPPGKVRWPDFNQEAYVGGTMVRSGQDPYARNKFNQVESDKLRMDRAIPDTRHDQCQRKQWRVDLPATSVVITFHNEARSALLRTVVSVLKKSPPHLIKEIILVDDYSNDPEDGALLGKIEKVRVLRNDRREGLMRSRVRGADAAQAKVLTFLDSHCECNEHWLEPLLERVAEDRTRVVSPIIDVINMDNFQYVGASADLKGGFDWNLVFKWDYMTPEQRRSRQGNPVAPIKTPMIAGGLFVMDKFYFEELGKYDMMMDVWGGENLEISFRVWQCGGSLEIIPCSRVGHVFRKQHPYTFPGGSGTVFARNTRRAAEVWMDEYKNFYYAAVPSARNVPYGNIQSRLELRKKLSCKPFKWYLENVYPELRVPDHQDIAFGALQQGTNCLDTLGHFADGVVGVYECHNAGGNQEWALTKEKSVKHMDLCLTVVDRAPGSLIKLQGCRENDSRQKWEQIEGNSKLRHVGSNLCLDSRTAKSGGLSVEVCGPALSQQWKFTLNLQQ
UniProt Q8IWJ2: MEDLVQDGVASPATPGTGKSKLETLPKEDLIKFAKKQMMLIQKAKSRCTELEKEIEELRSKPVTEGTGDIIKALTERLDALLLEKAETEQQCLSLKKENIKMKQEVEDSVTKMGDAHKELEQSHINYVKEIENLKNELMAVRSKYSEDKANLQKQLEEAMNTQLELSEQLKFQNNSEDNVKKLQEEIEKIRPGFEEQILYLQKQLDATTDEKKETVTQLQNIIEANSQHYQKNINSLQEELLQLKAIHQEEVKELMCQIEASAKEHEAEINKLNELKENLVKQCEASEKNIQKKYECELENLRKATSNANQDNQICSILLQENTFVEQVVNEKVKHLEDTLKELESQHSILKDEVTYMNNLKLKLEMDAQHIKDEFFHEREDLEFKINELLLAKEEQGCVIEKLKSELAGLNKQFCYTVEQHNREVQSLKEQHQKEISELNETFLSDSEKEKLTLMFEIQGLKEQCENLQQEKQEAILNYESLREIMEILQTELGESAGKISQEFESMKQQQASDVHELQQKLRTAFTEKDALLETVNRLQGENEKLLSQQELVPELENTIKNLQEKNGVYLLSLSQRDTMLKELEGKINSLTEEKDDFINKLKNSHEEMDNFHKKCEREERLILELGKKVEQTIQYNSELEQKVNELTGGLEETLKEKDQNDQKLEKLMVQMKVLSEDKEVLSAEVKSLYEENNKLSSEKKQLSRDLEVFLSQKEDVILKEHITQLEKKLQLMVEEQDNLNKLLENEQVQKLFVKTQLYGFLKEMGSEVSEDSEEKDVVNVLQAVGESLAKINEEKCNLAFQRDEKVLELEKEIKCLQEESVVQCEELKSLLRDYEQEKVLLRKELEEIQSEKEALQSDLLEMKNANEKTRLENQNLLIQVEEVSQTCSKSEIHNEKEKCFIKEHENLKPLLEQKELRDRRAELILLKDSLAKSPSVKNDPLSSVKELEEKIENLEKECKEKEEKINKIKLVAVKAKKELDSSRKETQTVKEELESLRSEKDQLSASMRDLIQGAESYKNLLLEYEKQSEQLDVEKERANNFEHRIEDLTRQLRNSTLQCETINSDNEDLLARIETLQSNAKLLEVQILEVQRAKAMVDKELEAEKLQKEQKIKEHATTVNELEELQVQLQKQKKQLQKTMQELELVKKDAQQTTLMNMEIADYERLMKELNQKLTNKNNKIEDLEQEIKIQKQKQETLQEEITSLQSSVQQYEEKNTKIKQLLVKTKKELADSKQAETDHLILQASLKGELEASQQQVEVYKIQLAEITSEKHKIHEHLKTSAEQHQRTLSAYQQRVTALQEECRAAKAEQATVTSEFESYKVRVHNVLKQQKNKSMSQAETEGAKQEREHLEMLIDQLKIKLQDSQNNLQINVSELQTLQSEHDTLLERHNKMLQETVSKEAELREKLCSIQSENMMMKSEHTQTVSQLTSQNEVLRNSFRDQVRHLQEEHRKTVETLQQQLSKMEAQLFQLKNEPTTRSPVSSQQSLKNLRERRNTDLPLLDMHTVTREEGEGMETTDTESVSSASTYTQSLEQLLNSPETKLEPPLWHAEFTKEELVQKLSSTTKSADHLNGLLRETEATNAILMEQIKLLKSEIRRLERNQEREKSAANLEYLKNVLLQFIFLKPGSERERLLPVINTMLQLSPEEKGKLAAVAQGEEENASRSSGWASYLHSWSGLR
UniProt P15976: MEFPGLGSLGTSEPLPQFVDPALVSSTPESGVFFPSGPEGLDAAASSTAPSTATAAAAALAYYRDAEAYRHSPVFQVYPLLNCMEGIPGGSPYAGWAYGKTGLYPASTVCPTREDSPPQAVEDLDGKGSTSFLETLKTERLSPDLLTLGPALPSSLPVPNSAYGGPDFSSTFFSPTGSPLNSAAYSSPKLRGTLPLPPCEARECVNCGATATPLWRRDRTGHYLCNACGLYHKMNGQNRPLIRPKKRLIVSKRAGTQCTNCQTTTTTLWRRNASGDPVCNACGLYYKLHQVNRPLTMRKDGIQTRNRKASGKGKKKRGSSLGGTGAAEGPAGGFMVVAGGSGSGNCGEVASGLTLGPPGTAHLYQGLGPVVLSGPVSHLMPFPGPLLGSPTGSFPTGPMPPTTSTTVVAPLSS
UniProt P0CL80: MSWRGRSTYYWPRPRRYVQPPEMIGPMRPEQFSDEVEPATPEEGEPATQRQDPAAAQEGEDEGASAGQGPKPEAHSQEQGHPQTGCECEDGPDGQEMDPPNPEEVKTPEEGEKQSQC
UniProt Q9BTY2: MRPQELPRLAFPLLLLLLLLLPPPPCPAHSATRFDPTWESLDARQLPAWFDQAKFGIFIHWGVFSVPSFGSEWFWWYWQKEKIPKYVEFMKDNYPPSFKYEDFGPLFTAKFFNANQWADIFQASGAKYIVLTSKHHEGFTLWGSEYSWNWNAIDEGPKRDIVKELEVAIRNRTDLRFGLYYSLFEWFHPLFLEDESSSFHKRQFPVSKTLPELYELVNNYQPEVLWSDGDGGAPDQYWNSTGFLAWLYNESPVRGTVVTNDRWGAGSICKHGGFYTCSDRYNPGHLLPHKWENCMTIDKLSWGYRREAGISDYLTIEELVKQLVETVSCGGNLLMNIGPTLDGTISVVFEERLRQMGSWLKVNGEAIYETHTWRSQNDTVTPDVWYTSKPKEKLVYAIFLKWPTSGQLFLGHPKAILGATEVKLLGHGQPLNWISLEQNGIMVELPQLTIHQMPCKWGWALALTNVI

Q: How did the log2 fold change turn out when GABARAPL1 isoform 2 (UniProt Q9H0R8) was run?
A: inactive: 0.044

Q: How did the log2 fold change turn out when GEMIN5 (UniProt Q8TEQ6) was run?
A: inactive: 0.043

Q: How did the log2 fold change turn out when FOPNL (UniProt Q96NB1) was run?
A: inactive: 0.051

Q: GDI1 (UniProt P31150) was tested. Which log2 fold change did it give?
A: inactive: 0.062

Q: Which log2 fold change does the source give for GALNT2 (UniProt Q10471) here?
A: inactive: 0.008

Q: How did the log2 fold change turn out when GCC2 (UniProt Q8IWJ2) was run?
A: inactive: -0.088

Q: GATA1 (UniProt P15976) was tested. Which log2 fold change did it give?
A: inactive: -0.033

Q: For GAGE12F (UniProt P0CL80), which log2 fold change is on record?
A: inactive: 0.085

Q: How did the log2 fold change turn out when FUCA2 (UniProt Q9BTY2) was run?
A: inactive: 0.013

Q: Which log2 fold change does the source give for GBF1 (UniProt Q92538) here?
A: inactive: 0.093
